Values from PubChem BioAssay AID1259425 (University of Nebraska Medical Center, 2018)
The deposit covers about 14,000 reagents; shown is an unselected part. Further read-outs or replicates are left out here. Reagent sequences are not shown. The record does not give: the time to read-out.

Aim: 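Find knockdowns that reproduce the gene expression pattern seen when KSR1 is lost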 (primary screen)
System: HCT116 human colon cancer cells
Knock-down reagent: siRNA pool against human genes, 50 nM siRNA
Read-out: 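After 50 nM siRNA pool, branched-DNA assay measures six marker transcripts per well, minus blank, normalised to the geometric mean of two housekeeping transcripts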
Scale: BNIP3L mRNA: higher = more BNIP3L transcript after knockdown

{"gene knocked down": "APC2", "BNIP3L mRNA, set 1": 0.13}
{"gene knocked down": "LINC00525", "BNIP3L mRNA, set 1": 0.19}
{"gene knocked down": "SPX", "BNIP3L mRNA, set 1": 0.119}
{"gene knocked down": "SLC19A4P", "BNIP3L mRNA, set 1": 0.117}
{"gene knocked down": "PRORP", "BNIP3L mRNA, set 1": 0.109}
{"gene knocked down": "IRF9", "BNIP3L mRNA, set 1": 0.0717}
{"gene knocked down": "RBM17", "BNIP3L mRNA, set 1": 0.0633}
{"gene knocked down": "ZNF230", "BNIP3L mRNA, set 1": 0.175}
{"gene knocked down": "ZNF214", "BNIP3L mRNA, set 1": 0.154}
{"gene knocked down": "CLEC7A", "BNIP3L mRNA, set 1": 0.118}
{"gene knocked down": "KDM5C", "BNIP3L mRNA, set 1": 0.158}
{"gene knocked down": "IFT80", "BNIP3L mRNA, set 1": 0.0803}
{"gene knocked down": "TH", "BNIP3L mRNA, set 1": 0.149}
{"gene knocked down": "NEMF", "BNIP3L mRNA, set 1": 0.0856}
{"gene knocked down": "TRIM56", "BNIP3L mRNA, set 1": 0.114}
{"gene knocked down": "HTT", "BNIP3L mRNA, set 1": 0.198}
{"gene knocked down": "HKDC1", "BNIP3L mRNA, set 1": 0.164}
{"gene knocked down": "CD3D", "BNIP3L mRNA, set 1": 0.048}
{"gene knocked down": "KCNK9", "BNIP3L mRNA, set 1": 0.0838}
{"gene knocked down": "STARD3NL", "BNIP3L mRNA, set 1": 0.182}
{"gene knocked down": "DNAI4", "BNIP3L mRNA, set 1": 0.0809}
{"gene knocked down": "CTC1", "BNIP3L mRNA, set 1": 0.167}
{"gene knocked down": "HADHB", "BNIP3L mRNA, set 1": 0.129}
{"gene knocked down": "ANP32E", "BNIP3L mRNA, set 1": 0.146}
{"gene knocked down": "PCYT1B", "BNIP3L mRNA, set 1": 0.138}
{"gene knocked down": "DCAF10", "BNIP3L mRNA, set 1": 0.0807}
{"gene knocked down": "SYDE1", "BNIP3L mRNA, set 1": 0.173}
{"gene knocked down": "TRAK1", "BNIP3L mRNA, set 1": 0.186}

Reprinted from the listing for reference:
{"gene knocked down": "HADHB", "BNIP3L mRNA, set 1": 0.129}
{"gene knocked down": "ANP32E", "BNIP3L mRNA, set 1": 0.146}
